Test results published in PubChem BioAssay AID504834 (National Center for Advancing Translational Sciences (NCATS), 2011).
The whole screen tested about 320,000 compounds, of which about 22,000 (6.9%) were called active. Inconclusive results, whose numbers are uncertain, are shown with a selection of clear calls. The call rests on the fitted dose curve; in most records, active means well fitted inhibition curve with a large enough effect; inconclusive means small, poorly fitted or top-dose-only effect, or another doubt; inactive means no such curve, though single readings can be large or run the other way. Potencies beside an inconclusive call are fits to weak or partial responses and may not hold up.

Assay: Primary qHTS for delayed death inhibitors of the malarial parasite plastid, 96 hour incubation
Details: P. falciparum luciferase reporter growth; series mostly up to 28.7 µM; activity change, negative = inhibition: at the top concentration
Outline: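 Erythrocytes infected with luciferase-expressing P. falciparum were dispensed at 2% hematocrit and 0.05% parasitemia (final), then incubated with compounds 96 hours at 37 C in 5% CO2. Luminescence after detection reagent addition reported growth.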
On the % scale 0 is the no-effect control and ±100 the full control effect; potency means the concentration at half of the fitted maximal effect.

Which Potency does the source give for CCCCOc1ccc(OCCCC)c2c1NC1(N2)C(=O)N(C(C)=O)c2ccccc21 here?
The Potency was inconclusive: 16.5 µM [inhibitor, single point].

Which Potency does the source give for CN1CCN(C(=O)CCn2c(=O)c3cccn3c3cccnc32)CC1 here?
Its Potency is active: 13.1 µM.

With c1ccc2c(c1)CC(N1CCCCC1)c1ccccc1N2 (configuration not stated) as the molecule, how does the “activity change, negative = inhibition” value read?
Its value is inactive: 0%.

For Cc1cc(OCC(=O)NC2CCN(Cc3ccccc3)CC2)c2c(C)c(C)c(=O)oc2c1, which Potency is on record?
The Potency was inconclusive: 14.7 µM [inhibitor, single point].

Which Potency does the source give for O=C(Nc1ccc(Br)cc1)c1cccc(N2C(=O)C3C4C=CC(C4)C3C2=O)c1 (configuration not stated) here?
The Potency was inconclusive: 18.5 µM [inhibitor, single point].

For c1ccc2c(Nc3ccc4c(c3)OCCO4)c3c(nc2c1)CCCC3, which Potency is on record?
Its Potency is inconclusive: 18.5 µM [inhibitor, single point].

Which Potency does the source give for CC1(C)CC2(CC(c3ccccc3F)c3ccc(O)c(O)c3O2)NC(=S)N1 (configuration not stated) here?
The Potency was inconclusive: 18.5 µM [inhibitor, single point].

Which Potency does the source give for O=C(CCNC(=O)Cn1ccc2ccccc2c1=O)NCCCN1CCOCC1 here?
Its Potency is inconclusive: 8.28 µM [inhibitor, partial curve, poor fit].

For O=C(O)C[C@@H](CNC(=O)COc1ccc2ccc(=O)oc2c1)c1ccc(Cl)cc1, which “activity change, negative = inhibition” value is on record?
Its value is inactive: -2.88%.

For COc1cccc(/C=C/C(=C2/C(=O)N(c3ccccc3)N=C2C)c2ccccc2)c1OC, which Potency is on record?
Its Potency is inconclusive: 0.0147 µM [inhibitor, full curve, poor fit].

Which Potency does the source give for Cc1cc(C)n(S(=O)(=O)c2ccc(Cl)c(Cl)c2Cl)n1 here?
The Potency was inconclusive: 5.22 µM [inhibitor, partial curve, poor fit].

Which Potency does the source give for Oc1ccc(/C=N/Nc2nc(N3CCCC3)nc(N3CCCC3)n2)cc1O here?
The Potency was inconclusive: 16.5 µM [inhibitor, partial curve, poor fit].

For COc1ccc(/C=N/OCC(=O)NCC(C)C)c(OC)c1, which Potency is on record?
The Potency was inconclusive: 18.5 µM [inhibitor, single point].

With CC(O)CNc1ccc(-c2n[nH]c(=O)c3ccccc23)cc1[N+](=O)[O-] (configuration not stated) as the molecule, how does the “activity change, negative = inhibition” value read?
The value was inactive: 52.4%.

For COc1ccc(OC)c(C(=O)NC(CC(N)=O)c2ccc(NCCOc3ccccc3)c([N+](=O)[O-])c2)c1 (configuration not stated), which Potency is on record?
Its Potency is inconclusive: 10.4 µM [inhibitor, partial curve, poor fit].

Which “activity change, negative = inhibition” value does the source give for O=C(O)c1cc(S(=O)(=O)N(Cc2ccccc2)c2ccc(Cl)cc2)ccc1Cl here?
Its value is inactive: -7.89%.

For O=C(O)c1c2c(nc3ccc(S(=O)(=O)N4CCC(C(=O)NC5CCCC5)CC4)cc13)CCCCC2, which Potency is on record?
Its Potency is inconclusive: 13.1 µM [inhibitor, single point].
